Data as given in the supplement of paper PMC10382679.
Single values of this set are uncertain.

B1: Rpb7; numbered along this chain (parent)
chain: MFFIKDLSLNITLHPSFFGPRMKQYLKTKLLEEVEGSCTGKFGYILCVLDYDNIDIQRGRILPTDGSAEFNVKYRAVVFKPFKGEVVDGTVVSCSQHGFEVQVGPMKVFVTKHLMPQDLTFNAGSNPPSYQSSEDVITIKSRIRVKIEGCISQVSSIHAIGSIKEDYLGAI

Key:
[1] = variants of: B1; assay: log2 fold change of mutant abundance, UV-irradiated vs unirradiated; higher = more UV resistant (enriched after UV); conditions: with Saccharomyces cerevisiae rad7Δ rad26Δ; UV dose (J/m2): 10; genetic background: rad7Δ rad26Δ rpb7Δ + plasmid RPB7 library; outgrowth: 10 cell divisions
[2] = variants of: B1; assay: NOISeq theta enrichment statistic, UV-irradiated vs unirradiated (dimensionless); higher = more UV resistant (enriched after UV); conditions: with Saccharomyces cerevisiae rad7Δ rad26Δ; UV dose (J/m2): 10; genetic background: rad7Δ rad26Δ rpb7Δ + plasmid RPB7 library; outgrowth: 10 cell divisions

Row | Variant | log2 fold change of mutant abundance [1] | NOISeq theta enrichment statistic [2]
1 | N53T | 0.0449 | 0.0805
2 | N53V | 0.16 | 0.0819
3 | N53Y | 0.0565 | 0.228
4 | I54F | 0.0446 | 0.0357
5 | I54K | 0.223 | 0.563
6 | I54L | -0.0544 | -0.251
7 | I54M | 0.0702 | 0.212
8 | I54N | 0.799 | 0.413
9 | I54R | 0.397 | 0.454
10 | I54S | 0.103 | 0.0604
11 | I54T | 0.132 | 0.377
12 | I54V | 0.0324 | 0.0744
13 | I54Y | -0.327 | -0.134
14 | D55A | 0.057 | 0.0846
15 | D55C | 0.0809 | 0.0497
16 | D55E | 0.171 | 0.48
17 | D55F | -0.618 | -0.37
18 | D55G | -0.103 | -0.323
19 | D55H | 0.188 | 0.231
20 | D55I | 0.0701 | 0.0842
21 | D55K | -0.152 | -0.119
22 | D55N | 0.0303 | 0.0688
23 | D55P | 0.255 | 0.224
24 | D55R | -0.559 | -0.238

Row | Variant | log2 fold change of mutant abundance [1] | NOISeq theta enrichment statistic [2]
25 | D55S | -0.273 | -0.205
26 | D55V | -0.162 | -0.806
27 | D55Y | -0.0551 | -0.227
28 | I56C | -0.326 | -0.233
29 | I56D | 0.131 | 0.0773
30 | I56F | 0.0624 | 0.251
31 | I56K | 0.0861 | 0.0707
32 | I56L | 0.0361 | 0.0432
33 | I56M | -0.00564 | -0.00855
34 | I56N | 0.119 | 0.32
35 | I56R | -0.549 | -0.34
36 | I56S | 0.106 | 0.133
37 | I56T | 0.0851 | 0.271
38 | I56V | 0.0988 | 0.242
39 | I56Y | -0.408 | -0.18
40 | Q57E | -0.0218 | -0.0254
41 | Q57H | -0.0736 | -0.443
42 | Q57I | 0.224 | 0.164
43 | Q57K | 0.047 | 0.179
44 | Q57L | 0.048 | 0.177
45 | Q57N | 0.16 | 0.186
46 | Q57P | 0.0285 | 0.052
47 | Q57R | 0.0598 | 0.237
48 | Q57S | -0.231 | -0.117

Row | Variant | log2 fold change of mutant abundance [1] | NOISeq theta enrichment statistic [2]
49 | Q57T | 0.127 | 0.123
50 | Q57Y | -0.0236 | -0.0213
51 | R58C | 0.0232 | 0.0957
52 | R58F | 0.631 | 0.449
53 | R58G | -0.12 | -0.164
54 | R58H | 0.0848 | 0.425
55 | R58I | 0.219 | 0.119
56 | R58L | 0.225 | 0.799
57 | R58P | 0.139 | 0.235
58 | R58Q | 0.026 | 0.0164
59 | R58S | 0.052 | 0.102
60 | R58T | -0.275 | -0.131
61 | R58V | 0.232 | 0.241
62 | R58Y | -0.31 | -0.176
63 | G59A | -0.141 | -0.184
64 | G59C | 0.429 | 0.312
65 | G59E | -0.5 | -0.933
66 | G59L | 0.184 | 0.125
67 | G59M | -0.0188 | -0.00829
68 | G59R | -0.48 | -1.14
69 | G59S | -0.141 | -0.103
70 | G59V | -0.423 | -1.23
71 | G59W | 0.216 | 0.405
72 | R60C | 1.05 | 0.62

Row | Variant | log2 fold change of mutant abundance [1] | NOISeq theta enrichment statistic [2]
73 | R60E | 0.231 | 0.235
74 | R60G | -0.0899 | -0.344
75 | R60I | 0.0474 | 0.164
76 | R60K | 0.0128 | 0.0308
77 | R60L | -0.248 | -0.174
78 | R60M | -0.298 | -0.2
79 | R60N | -1 | -0.524
80 | R60S | 0.0149 | 0.0641
81 | R60T | 0.182 | 0.195
82 | R60V | -0.0622 | -0.0361
83 | R60W | -0.377 | -0.267
84 | I61A | 0.53 | 0.266
85 | I61E | -1.13 | -0.611
86 | I61F | -0.0209 | -0.016
87 | I61K | -0.327 | -0.589
88 | I61L | 0.201 | 1.02
89 | I61M | -0.0812 | -0.209
90 | I61N | -0.339 | -0.258
91 | I61R | 0.0697 | 0.0822
92 | I61S | -0.0862 | -0.0592
93 | I61T | -0.128 | -0.257
94 | I61V | -0.171 | -0.557
95 | I61Y | 0.0641 | 0.0818
96 | L62C | -0.0536 | -0.0683

Quoted from the listing for reference:
Row | Variant | log2 fold change of mutant abundance [1] | NOISeq theta enrichment statistic [2]
73 | R60E | 0.231 | 0.235
74 | R60G | -0.0899 | -0.344
75 | R60I | 0.0474 | 0.164

Following part

Row | Variant | log2 fold change of mutant abundance [1] | NOISeq theta enrichment statistic [2]
97 | L62F | -0.0279 | -0.135
98 | L62I | -0.0668 | -0.0534
99 | L62K | 0.316 | 0.205
100 | L62M | -0.0485 | -0.247
101 | L62P | -0.673 | -0.352
102 | L62Q | -0.88 | -0.342
103 | L62S | 0.103 | 0.395
104 | L62T | -1.02 | -0.469
105 | L62V | -0.327 | -0.449
106 | L62W | -0.161 | -0.228
107 | L62Y | -0.097 | -0.071
108 | P63A | -0.0028 | -0.00445
109 | P63F | -0.00793 | -0.00571
110 | P63H | -0.131 | -0.529
111 | P63L | -0.0945 | -0.373
112 | P63N | 0.21 | 0.118
113 | P63Q | -0.0446 | -0.0295
114 | P63R | 0.105 | 0.189
115 | P63S | -0.134 | -0.484
116 | P63T | 0.0672 | 0.214

Record cards, from the list above. Order of values: log2 fold change of mutant abundance [1]	NOISeq theta enrichment statistic [2]
L62K reads 0.316	0.205
P63H reads -0.131	-0.529
L62Q reads -0.88	-0.342
L62F reads -0.0279	-0.135
